Consider 38 compounds from the supplement of paper PMC12823440, “Inhibitors supercharge kinase turnover through native proteolytic circuits” (Nature, 2025).

The chains behind the UniProt entries cited, without tags or fusion partners. Where a name states a change or a piece, a line headed by the entry shows the natural chain unless it says otherwise.
UniProt Q9UQB9: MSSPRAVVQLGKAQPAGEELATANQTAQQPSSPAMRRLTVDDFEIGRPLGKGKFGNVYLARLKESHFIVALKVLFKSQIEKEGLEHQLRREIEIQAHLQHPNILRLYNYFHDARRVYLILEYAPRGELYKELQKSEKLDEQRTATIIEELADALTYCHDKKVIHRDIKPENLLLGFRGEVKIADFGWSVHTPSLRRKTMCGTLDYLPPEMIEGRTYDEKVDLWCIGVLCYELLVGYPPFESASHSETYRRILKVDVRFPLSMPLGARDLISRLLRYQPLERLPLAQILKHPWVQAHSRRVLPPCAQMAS

Structures can show the parent of a compound that is named as a salt. The list shows a part of the results. The calls rarely recur for the same compound in another form.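 Kinases, fused to nanoluciferase, were expressed in K562 cells; luminescence was measured every 4 h from 2 to 18 h as percent of control (DMSO = 100%, positive control = 0%). A time point is decreased if signal falls significantly (2 sigma). Hits were called by the authors by a rule that is not shown; the count of time points alone does not decide it.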

The target in the experiment is AURKC (UniProt Q9UQB9). Nature of the experiment: number of time points (of 5) at which kinase-Nluc abundance scored as decreased, DMSO-normalised (count); higher = more persistent destabilization. To be noted: K562; 2-18 h.
Take `CN1CC[C@@H](c2c(O)cc(O)c3c(=O)cc(-c4ccc(C(F)(F)F)cc4Cl)oc23)[C@@H]1CO` [Voruciclib (hydrochloride)] (10 µM): the “number of time points” value is 0. Take `O=c1cc(-c2cccc3c2Sc2ccccc2S3)oc(N2CCOCC2)c1` (10 µM): the “number of time points” value amounted to 0. On to `O=[N+]([O-])c1ccc(Nc2nc(N3CCOCC3)nc(N3CCOCC3)n2)cc1` (10 µM), for which the “number of time points” value is 0. To `c1ccc(-c2nc(=NCCN3CCOCC3)sn2-c2ccccc2)cc1` [VP3.15 (dihydrobromide)] (10 µM) belongs 0; to `Nc1nc(N)c2nc(-c3cccc(O)c3)cnc2n1` (10 µM), 0; to `Nc1ncnc2c1c(-c1ccc(Oc3ccccc3)cc1)nn2C1CCN(CCOCCOCCOc2ccc3c(c2)CN(C2CCC(=O)NC2=O)C3=O)CC1` (stereo not drawn) (2.5 µM), 0. As to `C=CC(=O)N1C[C@H](COc2nc(Nc3cnn(C)c3)nc3[nH]cc(Cl)c23)[C@@H](OC)C1` (2.5 µM), the “number of time points” value turned out to be 0. With `Cc1nn(C)c2c1C(c1ccc(C(F)(F)F)cc1)C(C#N)=C(N)O2` (stereo not drawn) (10 µM), the “number of time points” value was 0. Turning to `O=C(NC1CCOCC1)c1ccc(-c2cc(-c3c[nH]nc3-c3ccccn3)ccn2)cc1` (10 µM), the “number of time points” value stood at 0. As for `CC/C(=N\NC(=O)c1ccnc(NCCCN2CCOCC2)c1)c1ccc(Cl)cc1O` (2.5 µM), the “number of time points” value was found to be 0. The value for `COc1cc(N2CCOCC2)ccc1Nc1ncc(Cl)c(Nc2ccccc2NS(C)(=O)=O)n1` (2.5 µM) was 0; that for `Cn1cnc([N+](=O)[O-])c1C[N+](C)(C)C/C=C/C(=O)Nc1cc2c(Nc3ccc(Cl)c(Br)c3)ncnc2cn1` [Tarloxotinib (bromide)] (10 µM) was 0. To `O=C(Nc1cccc(C(F)(F)F)c1)c1cccc2cc(Oc3cc(CO)ncn3)ccc12` (10 µM) belongs 0. For `Oc1ccc(/C=C/c2cc(O)cc(O)c2)cc1` [Resveratrol] (10 µM), the “number of time points” value is 0. As for `O=c1[nH]c(C2CCCN2)nc2c1oc1ccc(Cl)cc12` (stereo not drawn) [XL413 (hydrochloride)] (10 µM), the “number of time points” value was 0. As to `CN(c1ccc(NC(=O)Nc2ccc(OC(F)(F)F)cc2)cc1)c1ccnc(Nc2cccc(S(N)(=O)=O)c2)n1` (2.5 µM), the “number of time points” value is 0. On to `C=C[C@@](C)(/C=C/c1ccc(O)cc1)CCC=C(C)C` [Bakuchiol] (10 µM), for which the “number of time points” value turned out to be 0. On to `COc1cc2ncnc(-n3nc(-c4ccccn4)nc3N)c2cc1OC` (10 µM), for which the “number of time points” value was found to be 0. Take `CNc1nc(Nc2ccc(C(=O)N3CCOCC3)cc2OC)ncc1Cl` (2.5 µM): the “number of time points” value came out at 0. The value for `CC(C)S(=O)(=O)c1ccc2nccc(Nc3ccc4scnc4c3)c2c1` (10 µM) was 0; that for `CC(C)(O)[C@H]1CC[C@H](Nc2ccc3ncc(-c4cccc(C(F)(F)F)c4)n3n2)CC1` (10 µM) was 0.

Regarding `CCN(CC)c1ccc2cc(-c3nc4cc(C)ccc4o3)c(=O)oc2c1` (10 µM), the “number of time points” value stood at 0. To `CN(C)S(=O)(=O)c1ccc2c(c1)/C(=C/c1cc3c([nH]1)CCCC3)C(=O)N2` (2.5 µM) belongs 0; to `C=CC(=O)Nc1cc(Nc2nccc(-n3cc(CN(C)C)c(-c4ccccc4)n3)n2)c(OC)cc1N1CCOCC1` [Lazertinib] (10 µM), 0.

`Cc1ccc2c(Nc3cccc(Cl)c3F)nccc2c1NC(=O)c1csc2c(N)ncnc12` [Belvarafenib] (10 µM): the “number of time points” value was found to be 0. For `Oc1cc(O)c2c(c1)OC1(c3ccc(O)c(O)c3)Oc3cc(O)c4c(c3C2C1O)OC(c1ccc(O)c(O)c1)C(O)C4` (stereo not drawn) [Procyanidin A1] (10 µM), the “number of time points” value is 0. The value for `c1ccc(-c2nc3c(c(-n4ccc5cnccc54)n2)CCC3)nc1` (10 µM) was 0. In the case of `Cc1cc(C)nc(NS(=O)(=O)c2ccc(NC(=S)NC(=O)COc3ccc(Br)cc3Cl)cc2)n1` (2.5 µM), the “number of time points” value was determined as 0.

For `Cc1ccc(NC(=O)c2ccc(CN(CCN(C)C)C(=O)c3cccnc3)cc2)cc1Nc1nccc(-c2cccnc2)n1` [PDGFRα kinase inhibitor 1] (10 µM), the “number of time points” value was determined as 0. To `C[C@H](Nc1ncnc2[nH]cnc12)c1cc2ccc(F)cc2nc1-c1ccccn1` (10 µM) belongs 0. With `CN(C)CCC=C1c2ccccc2CCc2ccccc21` [Amitriptyline (hydrochloride)] (2.5 µM), the “number of time points” value was 0. Take `O=C1/C(=C\c2ccc(Cl)cc2)C=C(c2ccccc2)N1c1ccc(O)cc1` (2.5 µM): the “number of time points” value came to 0. To `C[C@@H]1CCNC(=O)c2cc3ccc(C(=O)Nc4nc5ccccc5n4CCCN(C)C)cc3n21` (10 µM) belongs 0; to `COc1c(Nc2cc(C)[nH]n2)nc(Sc2ccc(S(=O)(=O)Cc3cccc([N+](=O)[O-])c3F)cc2F)nc1N1CCCCC1` [Centrinone-B] (2.5 µM), 0.

Take `COc1ccc(/C=C/C(=O)C2(C(=O)/C=C/c3ccc(OC)c(OC)c3)CCCCC2)cc1OC` (2.5 µM): the “number of time points” value was found to be 0. For `CN(C)c1nc2c(Br)c(Br)c(Br)c(Br)c2[nH]1` (10 µM), the “number of time points” value is 0.

With `O=C(Nc1nc(=O)n(Cc2ccc(Cl)cc2)s1)c1ccc(Cl)cc1` (10 µM), the “number of time points” value came out at 0. As for `Nc1n[nH]c2nc(-c3ccc(NS(=O)(=O)c4cc(Cl)ccc4F)cc3)cnc12` (10 µM), the “number of time points” value stood at 0.
